# Measured values published in publication PMC5996148.
# Values joined by “and” are separate entries in the source; they are usually repeats but may differ in a detail not shown here. Equal values may be shown once. Some of the results follow. For some assays here: Construct or isoform of the protein are uncertain.
# Columns and labels:
# Test in all cases: protein microarray (ProtoArray v5.0), streptavidin-Alexa Fluor 647
# Details in all cases: 3'-biotin; 20 mM Tris (pH 7.5), 5 mM MgCl2, 100 mM KCl, 0.1% Tween-20, A/T-rich and random oligonucleotide blockers; temperature not stated; high values mean tight binding
# [1] = system: MRPL10 (human)
# [2] = target: MRPL19 (UniProt P49406)
# [3] = system: MRPL43 (human)
# [4] = system: MRPL44 (human)
# [5] = system: MRPL53 (human)
# [6] = system: MRS2L (human)
# [7] = system: MS4A2 (human)
# [8] = system: MS4A4A (human)
# [9] = system: MSRA (human)
# [10] = system: MSRB3 (human)
# [11] = system: MT1M (human)
# [12] = system: MTAP (human)
# [13] = system: MTCP1 (human)
# [14] = system: MTHFR (human)
# [15] = system: MTMR1 (human)
# [16] = system: MTMR14 (human)
# [17] = system: MTMR9 (human)
# [18] = system: MTTP (human)
# [19] = system: MTUS1 (human)
# [20] = system: MUCL1 (human)
sequence,measurement,setting,value
GGGAGGCTGAGGCAGG [G4-1 biotinylated (PQS2)],binding signal,[1],-0.284 z-score
same,binding signal,[2],4.58 z-score
same,binding signal,[3],-0.316 z-score and -0.312 z-score and -0.337 z-score
same,binding signal,[4],-0.256 z-score
same,binding signal,[5],-0.294 z-score
same,binding signal,[6],-0.345 z-score
same,binding signal,[7],-0.265 z-score
same,binding signal,[8],-0.281 z-score
same,binding signal,[9],-0.339 z-score
same,binding signal,[10],-0.332 z-score
same,binding signal,[11],-0.314 z-score
same,binding signal,[12],-0.348 z-score and -0.338 z-score
same,binding signal,[13],-0.281 z-score
same,binding signal,[14],-0.347 z-score and -0.333 z-score
same,binding signal,[15],-0.334 z-score
same,binding signal,[16],-0.29 z-score
same,binding signal,[17],-0.274 z-score
same,binding signal,[18],-0.314 z-score
same,binding signal,[19],-0.314 z-score
same,binding signal,[20],-0.316 z-score

# Already shown: entries from further up.
sequence,measurement,setting,value
GGGAGGCTGAGGCAGG [G4-1 biotinylated (PQS2)],binding signal,[10],-0.332 z-score
same,binding signal,[11],-0.314 z-score
